Reference: PubChem BioAssay AID686938 (Drosophila RNAi Screening Center, 2013)

Assay: 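Knock-downs reducing store-operated calcium influx in Drosophila cells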 (primary screen)
System: Drosophila S2R+ cells
Reagents: long dsRNA against Drosophila genes, about 0.25 µg dsRNA per well, roughly 10,000 cells
Duration: 5 days of knock-down before the calcium assay
Treatment: thapsigargin (SERCA pump blocker) to empty calcium stores; entry signal taken 4 min after adding it
Measurement: 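Duplicate raw fluo-4 intensities per well from a plate reader, at rest and four minutes after thapsigargin emptied calcium stores; entry-to-rest ratio filled for only some wells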
Reading the numbers: calcium entry signal: higher = stronger calcium signal after store depletion; entry to resting ratio: higher = more calcium entry relative to resting level; resting calcium signal: higher = higher resting calcium signal
Units: calcium entry signal in fluorescence units; resting calcium signal in fluorescence units
Call rule: 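Hit if the duplicate-averaged plate z-score for entry over resting signal is under −3; wells with weak total dye signal (Fmax z < −2) or more than 5 off-targets removed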
Meaning of the calls: active = strongly reduced calcium entry; inactive = no strong reduction
The deposit covers about 23,000 reagents; below is an unselected part of those that have a named target and a result. Of all reagents, 75 (0.33%) are marked active. 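Raw plate signals without normalisation; calls rest on plate z-scores that were not deposited; ratio present for only 364 wells.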 Reagents against one gene are numbered here. A plus sign joins genes that one reagent is predicted to hit. Not stated in the record: the dose of the treatment.

Target gene | dsRNA no. | calcium entry signal, replicate 1 | calcium entry signal, replicate 2 | entry to resting ratio | resting calcium signal, replicate 1 | resting calcium signal, replicate 2 | Outcome
AMPdeam | 1 | 2.21e7 | 3.10e7 | – | 1.14e7 | 1.38e7 | inactive
AMPdeam | 2 | 2.41e7 | 2.55e7 | – | 1.19e7 | 1.27e7 | inactive
AMPdeam | 3 | 2.06e7 | 2.93e7 | – | 1.19e7 | 1.28e7 | inactive
AMPdeam | 4 | 1.98e7 | 2.62e7 | – | 1.04e7 | 1.16e7 | inactive
Hip1 | 1 | 6.02e7 | 4.88e7 | – | 3.89e7 | 2.37e7 | inactive
CG3650 | 1 | 4.15e7 | 4.57e7 | – | 2.22e7 | 2.25e7 | inactive
z | 1 | 3.62e7 | 5.35e7 | – | 1.88e7 | 2.44e7 | inactive
z | 2 | 3.11e7 | 4.13e7 | – | 1.56e7 | 1.82e7 | inactive
CG8252 | 1 | 4.90e7 | 4.39e7 | – | 2.04e7 | 1.96e7 | inactive
Lsd-1 | 1 | 5.34e7 | 4.07e7 | – | 2.60e7 | 1.81e7 | inactive
orion | 1 | 2.91e7 | 4.21e7 | – | 1.49e7 | 1.74e7 | inactive
orion | 2 | 2.80e7 | 4.49e7 | – | 1.41e7 | 2.08e7 | inactive
Dek | 1 | 3.83e7 | 3.70e7 | – | 1.80e7 | 1.93e7 | inactive
Unc-115b + p24-2 | 1 | 3.36e7 | 4.32e7 | – | 1.62e7 | 2.13e7 | inactive
CG10958 | 1 | 2.86e7 | 2.03e7 | – | 1.25e7 | 9.42e6 | inactive
CG7551 | 1 | 2.55e7 | 4.36e7 | – | 1.39e7 | 1.92e7 | inactive
CG6978 | 1 | 5.34e7 | 4.06e7 | – | 2.39e7 | 1.77e7 | inactive
Snap24 | 1 | 8.31e6 | 2.89e7 | – | 7.94e6 | 1.41e7 | inactive
CG7548 | 1 | 2.92e7 | 3.71e7 | – | 1.41e7 | 1.72e7 | inactive
Srpk79D | 1 | 3.05e7 | 4.24e7 | – | 1.52e7 | 2.78e7 | inactive
Srpk79D | 2 | 2.77e7 | 4.94e7 | – | 1.47e7 | 2.13e7 | inactive
CG1998 | 1 | 4.28e7 | 4.59e7 | – | 2.07e7 | 2.19e7 | inactive
Dpy-30L2 | 1 | 4.27e7 | 4.80e7 | – | 2.10e7 | 2.24e7 | inactive
amos | 1 | 3.22e7 | 4.34e7 | – | 1.58e7 | 1.69e7 | inactive

Look-ups from the list:
Under “resting calcium signal, replicate 1”, Dek has 1.80e7
Value of AMPdeam #4 in “Outcome”: inactive
orion #2, resting calcium signal, replicate 2 = 2.08e7
z #1, resting calcium signal, replicate 1: 1.88e7
Under “resting calcium signal, replicate 2”, AMPdeam #1 reads 1.38e7
Under “resting calcium signal, replicate 2”, amos reads 1.69e7

Continued:
Target gene | dsRNA no. | calcium entry signal, replicate 1 | calcium entry signal, replicate 2 | entry to resting ratio | resting calcium signal, replicate 1 | resting calcium signal, replicate 2 | Outcome
CG10513 | 1 | 3.49e7 | 3.37e7 | – | 1.56e7 | 1.62e7 | inactive
eg | 1 | 3.17e7 | 5.25e7 | – | 1.64e7 | 2.18e7 | inactive
CG32793 | 1 | 4.43e7 | 5.63e7 | 2.1 | 2.13e7 | 2.27e7 | inactive
CG32793 | 2 | 3.86e7 | 6.18e7 | 2.2 | 1.77e7 | 2.30e7 | inactive
PH4alphaNE2 | 1 | 3.11e7 | 4.01e7 | – | 1.60e7 | 1.74e7 | inactive
Spn53F | 1 | 4.93e7 | 4.27e7 | – | 2.09e7 | 2.03e7 | inactive
CR30029 | 1 | 2.79e7 | 2.86e7 | – | 1.37e7 | 1.30e7 | inactive
RAF2 | 1 | 3.45e7 | 4.59e7 | – | 1.61e7 | 3.22e7 | inactive
RAF2 | 2 | 4.54e7 | 7.80e7 | – | 2.23e7 | 2.95e7 | inactive
Inos | 1 | 3.49e7 | 4.39e7 | – | 1.65e7 | 1.93e7 | inactive
side | 1 | 3.38e7 | 4.85e7 | – | 1.81e7 | 2.52e7 | inactive
side | 2 | 3.66e7 | 5.44e7 | – | 1.85e7 | 2.31e7 | inactive
side | 3 | 3.91e7 | 5.52e7 | – | 1.86e7 | 2.30e7 | inactive
side | 4 | 3.58e7 | 5.50e7 | – | 1.69e7 | 2.16e7 | inactive
side | 5 | 3.24e7 | 5.59e7 | – | 1.67e7 | 2.42e7 | inactive
htk | 1 | 1.77e7 | 2.93e7 | – | 1.46e7 | 1.20e7 | inactive
htk | 2 | 3.27e7 | 3.74e7 | – | 1.57e7 | 1.61e7 | inactive
